Results are given in words; binding and its absence hold for the method and conditions named. Binding seen in cells or lysates may run through a third protein. Some results given as binding are weak or reduced against the parent protein; the word gives no strength. Where a sequence is shown, tags or fusion partners need not be part of it.
Target: T1, HA-tagged full-length myopalladin (MYPN) (not stated (human or mouse cDNA cloned)) (UniProt Q86TC9)
T1 sequence: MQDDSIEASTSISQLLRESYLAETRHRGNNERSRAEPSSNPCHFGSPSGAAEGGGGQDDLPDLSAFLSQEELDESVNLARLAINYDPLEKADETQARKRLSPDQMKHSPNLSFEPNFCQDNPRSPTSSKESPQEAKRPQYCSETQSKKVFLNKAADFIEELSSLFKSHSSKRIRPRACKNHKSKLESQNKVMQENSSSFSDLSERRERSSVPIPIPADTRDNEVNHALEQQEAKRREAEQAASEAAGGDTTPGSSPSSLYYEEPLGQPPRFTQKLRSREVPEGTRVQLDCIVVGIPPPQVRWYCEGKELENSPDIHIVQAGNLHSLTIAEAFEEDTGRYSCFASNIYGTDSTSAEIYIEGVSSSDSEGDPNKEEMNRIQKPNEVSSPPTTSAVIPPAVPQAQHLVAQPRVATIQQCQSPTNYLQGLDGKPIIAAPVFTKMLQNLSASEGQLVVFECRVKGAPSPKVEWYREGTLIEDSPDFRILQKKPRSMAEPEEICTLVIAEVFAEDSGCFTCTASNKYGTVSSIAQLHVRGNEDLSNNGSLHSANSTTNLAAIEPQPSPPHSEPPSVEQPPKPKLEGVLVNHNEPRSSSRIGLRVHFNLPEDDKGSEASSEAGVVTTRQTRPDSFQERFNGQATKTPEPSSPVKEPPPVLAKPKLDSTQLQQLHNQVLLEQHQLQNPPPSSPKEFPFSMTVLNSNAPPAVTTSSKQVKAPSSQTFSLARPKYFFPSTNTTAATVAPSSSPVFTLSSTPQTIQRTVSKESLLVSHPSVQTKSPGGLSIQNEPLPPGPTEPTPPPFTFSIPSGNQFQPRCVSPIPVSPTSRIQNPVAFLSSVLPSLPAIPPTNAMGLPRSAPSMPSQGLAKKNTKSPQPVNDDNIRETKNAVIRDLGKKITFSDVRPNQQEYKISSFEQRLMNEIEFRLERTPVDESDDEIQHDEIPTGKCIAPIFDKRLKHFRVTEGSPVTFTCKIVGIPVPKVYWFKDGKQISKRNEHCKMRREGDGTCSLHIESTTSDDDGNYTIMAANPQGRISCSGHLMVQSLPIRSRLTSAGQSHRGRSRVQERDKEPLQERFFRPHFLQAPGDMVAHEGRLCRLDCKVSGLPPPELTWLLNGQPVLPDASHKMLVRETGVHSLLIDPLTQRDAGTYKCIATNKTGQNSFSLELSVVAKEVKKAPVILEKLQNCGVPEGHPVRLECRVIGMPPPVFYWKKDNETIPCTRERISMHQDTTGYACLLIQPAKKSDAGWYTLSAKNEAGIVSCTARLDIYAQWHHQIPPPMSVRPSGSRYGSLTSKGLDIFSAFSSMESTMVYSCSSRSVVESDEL
Test: co-IP; HEK293 cells transfected with pXJ40-HA-MYPN FL and/or pXJ40-FLAG-MRTF-A; lysate in IP buffer (20 mM Tris-HCl pH 7.5, 150 mM NaCl, 1% Triton X-100) precipitated with HA antibody on Protein G Dynabeads; western blot with FLAG antibody

B1: FLAG-tagged myocardin-related transcription factor A (MRTF-A) (protein, UniProt Q969V6 1-931)
chain: MPPLKSPAAFHEQRRSLERARTEDYLKRKIRSRPERSELVRMHILEETSAEPSLQAKQLKLKRARLADDLNEKIAQRPGPMELVEKNILPVESSLKEAIIVGQVNYPKVADSSSFDEDSSDALSPEQPASHESQGSVPSPLEARVSEPLLSATSASPTQVVSQLPMGRDSREMLFLAEQPPLPPPPLLPPSLTNGTTIPTAKSTPTLIKQSQPKSASEKSQRSKKAKELKPKVKKLKYHQYIPPDQKQDRGAPPMDSSYAKILQQQQLFLQLQILNQQQQQHHNYQAILPAPPKSAGEALGSSGTPPVRSLSTTNSSSSSGAPGPCGLARQNSTSLTGKPGALPANLDDMKVAELKQELKLRSLPVSGTKTELIERLRAYQDQISPVPGAPKAPAATSILHKAGEVVVAFPAARLSTGPALVAAGLAPAEVVVATVASSGVVKFGSTGSTPPVSPTPSERSLLSTGDENSTPGDTFGEMVTSPLTQLTLQASPLQILVKEEGPRAGSCCLSPGGRAELEGRDKDQMLQEKDKQIEALTRMLRQKQQLVERLKLQLEQEKRAQQPAPAPAPLGTPVKQENSFSSCQLSQQPLGPAHPFNPSLAAPATNHIDPCAVAPGPPSVVVKQEALQPEPEPVPAPQLLLGPQGPSLIKGVAPPTLITDSTGTHLVLTVTNKNADSPGLSSGSPQQPSSQPGSPAPAPSAQMDLEHPLQPLFGTPTSLLKKEPPGYEEAMSQQPKQQENGSSSQQMDDLFDILIQSGEISADFKEPPSLPGKEKPSPKTVCGSPLAAQPSPSAELPQAAPPPPGSPSLPGRLEDFLESSTGLPLLTSGHDGPEPLSLIDDLHSQMLSSTAILDHPPSPMDTSELHFVPEPSSTMGLDLADGHLDSMDWLELSSGGPVLSLAPLSTTAPSLFSTDFLDGHDLQLHWDSCL
- binding: binds

Source: paper PMC7015241
